Source: PubChem BioAssay AID256 (DTP/NCI, 2004)
The list shows only some results of the screen, not a fair sample: it covers a few groups of compounds. Not every dose and run of a compound is shown. T/C gives the treated animals as a percentage of the vehicle group. Some entries give survivors of the animals treated and no T/C: the source holds a T/C of zero for them, seemingly a mark for toxic or unscored doses. Some doses without a T/C left all or most animals alive at the check, yet need not have been tolerated: survival well below the control is almost never listed, so the zero probably covers shortened survival too. Survivors were counted at the toxicity check, usually on the fifth day, unless a day is given; later deaths do not show. Schedule codes are those of the source, read here as Q, the interval in days (D) or hours (H), X, the number of doses. Where survival is the endpoint, the PubChem record calls one and a half times the control and up active, and a quarter to a half above the control has no call in these data; cut-offs in other NCI protocols can differ. Some T/C values carry the count of animals alive at the toxicity check (mostly the fifth day); where neither a count nor a note follows, no animal had died by that day. Some entries were tested several times; their values stand side by side, smallest first. Some entries show no survivor count and are marked so; the dose need not have been tolerated.

Test system: CD2F1 mice, L1210 leukemia ip, survival T/C
Assay: NCI In Vivo Anticancer Drug Screen. Data for tumor model L1210 Leukemia (intraperitoneal) in CD2F1 (CDF1) mice
Settings: T/C endpoint: mean survival time, higher T/C = longer survival
In short: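 Tumor-bearing mice (transplanted tumor) were split into treated and vehicle control groups, and the measured endpoint of each treated group was divided by that of its vehicle controls.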

[1] = dose: 100.0 mg/kg/injection, schedule: Q04DX003 (ip), vehicle: saline with Tween-80
[2] = dose: 200.0 mg/kg/injection, schedule: Q04DX003 (ip), vehicle: saline with Tween-80
[3] = dose: 400.0 mg/kg/injection, schedule: Q04DX003 (ip), vehicle: saline with Tween-80
[4] = dose: 25.0 mg/kg/injection, schedule: Q01DX009 (ip), vehicle: saline
[5] = dose: 50.0 mg/kg/injection, schedule: Q01DX009 (ip), vehicle: saline
[6] = dose: 100.0 mg/kg/injection, schedule: Q01DX009 (ip), vehicle: saline with Tween-80
[7] = dose: 200.0 mg/kg/injection, schedule: Q01DX009 (ip), vehicle: saline with Tween-80
[8] = dose: 400.0 mg/kg/injection, schedule: Q01DX009 (ip), vehicle: saline with Tween-80

CC1CN1P(=O)(Nc1ccccn1)N1CC1C (stereo not given)
T/C (dose: 16.5 mg/kg/injection, schedule: Q04DX003 (ip), vehicle: saline): 104 % of control
T/C (dose: 29.0 mg/kg/injection, schedule: Q01DX009 (ip), vehicle: carboxymethylcellulose (CMC)): 136 % of control
T/C (dose: 33.0 mg/kg/injection, schedule: Q04DX003 (ip), vehicle: saline): 104 % of control
T/C (dose: 44.0 mg/kg/injection, schedule: Q01DX009 (ip), vehicle: carboxymethylcellulose (CMC)): 128 % of control
T/C (dose: 66.0 mg/kg/injection, schedule: Q01DX009 (ip), vehicle: carboxymethylcellulose (CMC)): 143 % of control
T/C (dose: 66.0 mg/kg/injection, schedule: Q04DX003 (ip), vehicle: saline): 117 % of control
T/C (dose: 100.0 mg/kg/injection, schedule: Q01DX009 (ip), vehicle: carboxymethylcellulose (CMC)): 103 % of control
T/C [1]: 123 and 131 % of control
T/C [2]: 89 [4 of 6 alive] and 109 % of control
T/C [3]: 89 and 125 % of control

COc1nncc2ccccc12.O=[N+]([O-])c1cc([N+](=O)[O-])c(O)c([N+](=O)[O-])c1
T/C [1]: 97 % of control [survivor count not shown]
T/C [2]: 97 % of control [survivor count not shown]
T/C [3]: 90 % of control [survivor count not shown]

CCCCOP(=O)(CCC)OCCCC
T/C [4]: 96 % of control [survivor count not shown]
T/C [5]: 98 % of control [survivor count not shown]
T/C [6]: 100 % of control [survivor count not shown]

CC1C[P+](c2ccccc2)(c2ccccc2)Cc2ccccc21.F[P-](F)(F)(F)(F)F (stereo not given)
T/C (dose: 6.25 mg/kg/injection, schedule: Q04DX003 (ip), vehicle: saline with Tween-80): 117 % of control
T/C (dose: 12.5 mg/kg/injection, schedule: Q04DX003 (ip), vehicle: saline with Tween-80): 98 % of control
survivor count (dose: 25.0 mg/kg/injection, schedule: Q04DX003 (ip), vehicle: saline with Tween-80): 2 of 3
survivor count [1]: 0 of 3
survivor count [2]: 0 of 3
survivor count [3]: 0 of 3

O=C(CCC(=O)OCCNc1ccc([N+](=O)[O-])cc1[N+](=O)[O-])OCCNc1ccc([N+](=O)[O-])cc1[N+](=O)[O-]
T/C (dose: 100.0 mg/kg/injection, schedule: Q04DX002 (ip), vehicle: saline with Tween-80): 102 % of control
T/C (dose: 200.0 mg/kg/injection, schedule: Q04DX002 (ip), vehicle: saline with Tween-80): 91 % of control
T/C (dose: 400.0 mg/kg/injection, schedule: Q04DX002 (ip), vehicle: saline with Tween-80): 95 % of control

O=P1(N(CCCl)CCCl)NC(c2ccccc2)CCO1 (stereo not given)
T/C (dose: 15.63 mg/kg/injection, schedule: Q01DX001 (ip), vehicle: distilled water + Tween-80): 100 and 103 % of control
T/C (dose: 31.3 mg/kg/injection, schedule: Q01DX001 (ip), vehicle: distilled water + Tween-80): 100 and 106 % of control
T/C (dose: 62.5 mg/kg/injection, schedule: Q01DX001 (ip), vehicle: distilled water + Tween-80, evaluated on day 30): 106 and 109 % of control
T/C (dose: 62.5 mg/kg/injection, schedule: Q01DX001 (ip), vehicle: distilled water + Tween-80, evaluated on day 45): 104 % of control
T/C (dose: 62.5 mg/kg/injection, schedule: Q01DX001 (ip), vehicle: water): 105 % of control
T/C (dose: 125.0 mg/kg/injection, schedule: Q01DX001 (ip), vehicle: distilled water + Tween-80, evaluated on day 30): 94 and 124 % of control
T/C (dose: 125.0 mg/kg/injection, schedule: Q01DX001 (ip), vehicle: distilled water + Tween-80, evaluated on day 45): 106 % of control
T/C (dose: 125.0 mg/kg/injection, schedule: Q01DX001 (ip), vehicle: water): 120 % of control
T/C (dose: 250.0 mg/kg/injection, schedule: Q01DX001 (ip), vehicle: distilled water + Tween-80, evaluated on day 30): 105 and 149 % of control [5 of 6 alive]
T/C (dose: 250.0 mg/kg/injection, schedule: Q01DX001 (ip), vehicle: distilled water + Tween-80, evaluated on day 45): 120 % of control
T/C (dose: 250.0 mg/kg/injection, schedule: Q01DX001 (ip), vehicle: water): 122 % of control
T/C (dose: 347.0 mg/kg/injection, schedule: Q01DX001 (ip), vehicle: distilled water + Tween-80): 110 % of control
T/C (dose: 417.0 mg/kg/injection, schedule: Q01DX001 (ip), vehicle: distilled water + Tween-80): 106 % of control
T/C (dose: 500.0 mg/kg/injection, schedule: Q01DX001 (ip), vehicle: distilled water + Tween-80, evaluated on day 30): 108 [5 of 6 alive] and 120 % of control
T/C (dose: 500.0 mg/kg/injection, schedule: Q01DX001 (ip), vehicle: distilled water + Tween-80, evaluated on day 45): 220 % of control [5 of 6 alive]
survivor count (dose: 500.0 mg/kg/injection, schedule: Q01DX001 (ip), vehicle: distilled water + Tween-80): 3 of 6
T/C (dose: 500.0 mg/kg/injection, schedule: Q01DX001 (ip), vehicle: water): 204 % of control [4 of 6 alive]
T/C (dose: 600.0 mg/kg/injection, schedule: Q01DX001 (ip), vehicle: distilled water + Tween-80): 130 % of control [5 of 6 alive]

CC1(C)CN1P(=O)(Nc1ncccn1)N1CC1(C)C (stereo not given)
T/C (dose: 12.5 mg/kg/injection, schedule: Q01DX009 (ip), vehicle: saline): 102 % of control
T/C [4]: 108 % of control
T/C (dose: 50.0 mg/kg/injection, schedule: Q01DX001 (ip), vehicle: saline): 128 % of control
T/C [5]: 128 % of control
T/C (dose: 100.0 mg/kg/injection, schedule: Q01DX001 (ip), vehicle: saline, evaluated on day 30): 122 % of control
T/C (dose: 100.0 mg/kg/injection, schedule: Q01DX001 (ip), vehicle: saline, run until all animals had died): 125 % of control
T/C (dose: 100.0 mg/kg/injection, schedule: Q01DX009 (ip), vehicle: saline): 150 % of control
T/C (dose: 200.0 mg/kg/injection, schedule: Q01DX001 (ip), vehicle: saline, evaluated on day 30): 141 % of control
T/C (dose: 200.0 mg/kg/injection, schedule: Q01DX001 (ip), vehicle: saline, run until all animals had died): 140 % of control
T/C (dose: 200.0 mg/kg/injection, schedule: Q01DX009 (ip), vehicle: saline): 271 % of control
T/C (dose: 400.0 mg/kg/injection, schedule: Q01DX001 (ip), vehicle: saline, evaluated on day 30): 150 % of control
T/C (dose: 400.0 mg/kg/injection, schedule: Q01DX001 (ip), vehicle: saline, run until all animals had died): 130 % of control
T/C (dose: 400.0 mg/kg/injection, schedule: Q01DX009 (ip), vehicle: saline): 90 % of control

CSc1ncc(COP(=S)(Cl)Cl)c(N)n1
T/C (dose: 100.0 mg/kg/injection, schedule: Q01DX001 (ip), vehicle: saline): 98 % of control
survivor count (dose: 200.0 mg/kg/injection, schedule: Q01DX001 (ip), vehicle: saline): 2 of 6
survivor count (dose: 400.0 mg/kg/injection, schedule: Q01DX001 (ip), vehicle: saline): 0 of 6

CN(C)P(=O)(OCCCO)N(CCCl)CCCl (stereo not given)
T/C (dose: 25.0 mg/kg/injection, schedule: Q01DX001 (ip), vehicle: DMSO): 91 % of control
T/C (dose: 50.0 mg/kg/injection, schedule: Q01DX001 (ip), vehicle: DMSO): 97 % of control
T/C (dose: 100.0 mg/kg/injection, schedule: Q01DX001 (ip), vehicle: DMSO): 93 % of control
T/C (dose: 200.0 mg/kg/injection, schedule: Q01DX001 (ip), vehicle: DMSO): 93 % of control
T/C (dose: 400.0 mg/kg/injection, schedule: Q01DX001 (ip), vehicle: DMSO): 96 % of control

O=[N+]([O-])c1ccc(SC2CCCCC2Cl)c([N+](=O)[O-])c1 (stereo not given)
T/C [6]: 101 % of control
T/C [7]: 95 % of control
T/C [8]: 97 % of control

O=[N+]([O-])c1cc(Cl)c(O)c([N+](=O)[O-])c1
T/C (dose: 25.0 mg/kg/injection, schedule: Q01DX009 (ip), vehicle: saline with Tween-80): 98 % of control
T/C (dose: 50.0 mg/kg/injection, schedule: Q01DX009 (ip), vehicle: saline with Tween-80): 98 % of control
T/C [6]: 102 [5 of 6 alive] and 106 % of control
survivor count [7]: 0 of 6
survivor count [8]: 0 of 6

CCCCOP(OCCCC)OCCCC
T/C [6]: 97 % of control
T/C [7]: 94 % of control
survivor count [8]: 4 of 6
